Test results taken from patent publication US20230138393A1, “LINKING AMINO ACID SEQUENCES, MANUFACTURING METHOD THEREOF, AND USE THEREOF” (priority 2020, published 2023).
Some entries share one result that the patent states for a list of compounds.

Tests used:
DLD-1 cells = test: Cell growth inhibition assay (CellTiter Glo, 5 days); assay type: cell-based; details: 16 μM was the highest concentration
β-catenin = molecular target: T1, β-catenin (Homo sapiens, UniProt P35222); test: ELISA assay for binding affinity; details: ELISA EC50 comparison
T1 construct: purchased Abcam ab63175
T1 sequence (P35222 1-781): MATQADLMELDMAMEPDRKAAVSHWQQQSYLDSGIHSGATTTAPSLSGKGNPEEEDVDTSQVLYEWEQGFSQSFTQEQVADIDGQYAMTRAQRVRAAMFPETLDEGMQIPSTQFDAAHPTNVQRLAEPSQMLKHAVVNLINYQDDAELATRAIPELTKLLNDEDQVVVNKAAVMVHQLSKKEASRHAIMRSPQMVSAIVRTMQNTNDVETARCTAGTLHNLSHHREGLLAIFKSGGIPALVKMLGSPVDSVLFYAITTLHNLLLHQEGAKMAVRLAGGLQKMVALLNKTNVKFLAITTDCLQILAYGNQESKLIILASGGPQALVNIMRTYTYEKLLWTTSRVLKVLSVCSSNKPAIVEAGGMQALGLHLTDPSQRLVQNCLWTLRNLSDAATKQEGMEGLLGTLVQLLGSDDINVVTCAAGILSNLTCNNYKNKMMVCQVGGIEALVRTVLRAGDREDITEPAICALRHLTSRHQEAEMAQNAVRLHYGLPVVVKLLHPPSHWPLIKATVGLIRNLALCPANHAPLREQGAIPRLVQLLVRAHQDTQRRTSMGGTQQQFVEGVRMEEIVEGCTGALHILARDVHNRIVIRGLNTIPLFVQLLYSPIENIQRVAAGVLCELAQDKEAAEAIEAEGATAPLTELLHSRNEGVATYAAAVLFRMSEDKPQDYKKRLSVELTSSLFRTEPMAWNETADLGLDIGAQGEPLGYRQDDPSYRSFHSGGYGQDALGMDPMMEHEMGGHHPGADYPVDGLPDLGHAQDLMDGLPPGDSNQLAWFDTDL

SMILES | concentration needed for a significant growth inhibition (DLD-1 cells) [µM] | fold more potent than unstapled peptide (47) in β-catenin binding (β-catenin)
CC[C@H](C)[C@@H]1NC(=O)[C@@](C)(NC(=O)[C@H](CCC(N)=O)NC(=O)[C@@H]2CCCN2C(=O)[C@H](Cc2c[nH]c3ccccc23)NC(=O)[C@H](CCCNC(=N)N)NC(=O)COCCOCCNC(=S)Nc2ccc3c(c2)C(=O)OC32c3ccc(O)cc3Oc3cc(O)ccc32)CCCC=CCCC[C@@](C)(C(=O)N[C@@H](Cc2c[nH]cn2)C(=O)N[C@H](C(=O)N[C@@H](CCCNC(=N)N)C(=O)N[C@@H](CCCNC(=N)N)C(=O)N[C@H](C(=O)N[C@@H](Cc2c[nH]c3ccccc23)C(=O)N[C@@H](CCCNC(=N)N)C(N)=O)C(C)C)C(C)C)NC(=O)[C@H](CC(=O)O)NC(=O)[C@H](CC(C)C)NC1=O [Peptide 51] | ≥ 16 | 
CC[C@H](C)[C@@H]1NC(=O)[C@@H](NC(=O)[C@H](CCC(N)=O)NC(=O)[C@@H]2CCCN2C(=O)[C@H](Cc2c[nH]c3ccccc23)NC(=O)[C@H](CCCNC(=N)N)NC(=O)COCCOCCNC(=S)Nc2ccc3c(c2)C(=O)OC32c3ccc(O)cc3Oc3cc(O)ccc32)CNC(=O)CSCc2cccc(c2)CSCC(=O)NC[C@@H](C(=O)N[C@@H](Cc2c[nH]cn2)C(=O)N[C@H](C(=O)N[C@@H](CCCNC(=N)N)C(=O)N[C@@H](CCCNC(=N)N)C(=O)N[C@H](C(=O)N[C@@H](Cc2c[nH]c3ccccc23)C(=O)N[C@@H](CCCNC(=N)N)C(N)=O)C(C)C)C(C)C)NC(=O)[C@H](CC(=O)O)NC(=O)[C@H](CC(C)C)NC1=O [Peptide 48] |  | at least 100 fold
CC[C@H](C)[C@@H]1NC(=O)[C@@H](NC(=O)[C@H](CCC(N)=O)NC(=O)[C@@H]2CCCN2C(=O)[C@H](Cc2c[nH]c3ccccc23)NC(=O)[C@H](CCCNC(=N)N)NC(=O)COCCOCCNC(=S)Nc2ccc3c(c2)C(=O)OC32c3ccc(O)cc3Oc3cc(O)ccc32)CNC(=O)CSCc2cccc(c2)CSCC(=O)NC[C@H](C(=O)N[C@@H](Cc2c[nH]cn2)C(=O)N[C@H](C(=O)N[C@@H](CCCNC(=N)N)C(=O)N[C@@H](CCCNC(=N)N)C(=O)N[C@H](C(=O)N[C@@H](Cc2c[nH]c3ccccc23)C(=O)N[C@@H](CCCNC(=N)N)C(N)=O)C(C)C)C(C)C)NC(=O)[C@H](CC(=O)O)NC(=O)[C@H](CC(C)C)NC1=O [Peptide 50] |  | at least 100 fold
